Laboratory results as given in patent JP2018158894A.
These are yes or no findings as the source states them, for the method shown. Some results given as binding are weak or reduced against the parent protein; the word gives no strength.

Biological target: T1, LGR6 on HCT116 cells (human colon cancer cell line) (human) (UniProt Q9HBX8)
T1 sequence (looked up): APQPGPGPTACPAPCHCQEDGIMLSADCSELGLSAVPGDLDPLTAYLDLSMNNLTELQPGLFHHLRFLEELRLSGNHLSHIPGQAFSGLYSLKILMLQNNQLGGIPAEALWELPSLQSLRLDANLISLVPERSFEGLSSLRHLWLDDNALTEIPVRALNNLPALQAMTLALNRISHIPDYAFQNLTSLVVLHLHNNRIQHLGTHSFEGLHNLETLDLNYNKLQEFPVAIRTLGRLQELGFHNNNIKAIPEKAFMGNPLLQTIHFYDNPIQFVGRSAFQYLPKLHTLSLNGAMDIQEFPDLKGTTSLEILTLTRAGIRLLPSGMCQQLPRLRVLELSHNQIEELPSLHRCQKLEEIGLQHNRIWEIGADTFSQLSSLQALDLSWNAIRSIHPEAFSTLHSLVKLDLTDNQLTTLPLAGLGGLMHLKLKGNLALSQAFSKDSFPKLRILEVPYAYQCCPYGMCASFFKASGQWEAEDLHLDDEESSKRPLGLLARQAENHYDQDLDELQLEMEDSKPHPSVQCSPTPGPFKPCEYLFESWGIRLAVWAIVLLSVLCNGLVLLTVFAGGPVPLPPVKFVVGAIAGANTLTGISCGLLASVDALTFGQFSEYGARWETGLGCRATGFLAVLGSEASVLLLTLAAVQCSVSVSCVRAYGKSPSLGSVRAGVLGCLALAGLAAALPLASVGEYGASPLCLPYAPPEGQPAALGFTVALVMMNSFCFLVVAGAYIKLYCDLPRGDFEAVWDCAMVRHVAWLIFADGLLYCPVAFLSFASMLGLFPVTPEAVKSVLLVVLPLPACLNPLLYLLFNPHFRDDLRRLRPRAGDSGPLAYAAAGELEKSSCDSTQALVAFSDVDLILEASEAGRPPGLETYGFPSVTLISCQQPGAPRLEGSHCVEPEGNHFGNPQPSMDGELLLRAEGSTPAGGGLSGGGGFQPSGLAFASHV
Test: immunofluorescence staining of HCT116 cells

binding: binds
B1: m164抗体 (anti-LGR6 mouse monoclonal antibody produced by hybridoma clone 164) (antibody, V domains shown)
VH: EVQLQQSGPELVKPGASVKISCKTSGYTFTEYTMHWVKQSHGKSLEWIGGINPYNRVSSYNQRFKGKATLTVDKSSSTAYMELRSLTSEDSAVYYCARRYDVFDSWGQGTTLTVSS
VL: DIVMSQSPSSLAVSVGEKVSMSCKSSQSLLYSSNQKNYLAWYQQKPGQSPKLLISWASTRESGVPARFTGSGSGTDFTLTISSVRAEDLAVYYCQQHFNYPYTFGGGAKLEMK
